Test results from patent publication US20210230273A1 (Alexion, published 2021).
Numbering of substitutions follows the chain as printed. No constants are given. Whether binding was seen depends on the method and setting. Some binding calls cover weakened binding; strength is not graded here.

Tests used:
cell surface CD200 [1] = target: T1, cell surface CD200 (human, UniProt P41217 31-278); experiment: flow cytometry, labelled antibody on CD200 expressing Raji cells
T1 construct: whole, on cells; also called CD200 on CD200 expressing Raji cells; CD200+ Raji cells
T1 sequence (looked up): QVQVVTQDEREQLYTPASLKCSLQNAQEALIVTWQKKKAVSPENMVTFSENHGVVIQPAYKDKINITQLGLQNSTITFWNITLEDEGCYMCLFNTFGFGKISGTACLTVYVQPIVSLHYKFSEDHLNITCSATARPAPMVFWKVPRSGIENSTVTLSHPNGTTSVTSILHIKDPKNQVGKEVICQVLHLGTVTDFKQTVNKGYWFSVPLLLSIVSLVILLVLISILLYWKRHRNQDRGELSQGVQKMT

cell surface CD200 [2] = target: T1, cell surface CD200; experiment: whole-blood receptor occupancy by flow cytometry, B cells (CD19+) and T cells (CD3+)
cell surface CD200 [3] = target: T1, cell surface CD200; experiment: flow cytometry, labelled antibody on CD200 expressing Raji cells; y axis % CD200 molecules bound
cell surface CD200 [4] = target: T1, cell surface CD200; experiment: whole-blood CD200 receptor occupancy by flow cytometry, T cells (CD3+); unlabelled antibody incubated overnight, free CD200 against total CD200 (1B2-AF647)
Protocol: (§1) Whole blood (including sodium heparin as anticoagulant) was added at 250 μL/FACs tube and sealed. Tubes were incubated at 25° C. in a temperature-controlled cabinet overnight to allow therapeutic antibody binding.
(§2) FACS Antibody Staining: Cells were blocked with Fc blocking reagent for 30 min. Red blood cells were lysed with hemolytic buffer; remaining cells were spun 800×g for 5 minutes, and the resulting cell pellet was washed twice with PBS. After final wash, cell pellets were resuspended into 200 μL PBS. Cells were stained with a fixable Live/Dead dye for 20 minutes protected from light, and then neutralized and washed with FACS buffer. After the final wash the cells were resuspended in 100 μL wash with FcR block. Labeled antibody cocktail mixes were prepared CD3-PE/CD19-FITC/Alexa-647 or CD3-PE/CD19-FITC/1B2-647 in blocking buffer as well as appropriate controls (single color and FMO). The appropriate amount of antibody was added and incubated with cells protected from light for 30 minutes at room temperature. […]
(§3) FACS Analysis: Data was acquired on an automated cell analyzer (BD Fortessa) by gating on lymphocytes, and single live cells followed by B cell (CD19+-FITC) and T cells (CD3-PE) populations. […] Percent receptor occupancy was calculated from the MFI (median fluorescence intensity) according to the following formula: […]

cell surface CD200 [5] = target: T1, cell surface CD200; experiment: whole-blood CD200 receptor occupancy by flow cytometry, B cells (CD19+); unlabelled antibody incubated overnight, free CD200 against total CD200 (1B2-AF647)
Protocol: as §1, §2, §3

Measured: binding

B1: samalizumab (antibody, human IgG2, kappa, V domains shown)
VH: QVQLQQSGSELKKPGASVKISCKASGYSFTDYIILWVRQNPGKGLEWIGHIDPYYGSSNYNLKFKGRVTITADQSTTTAYMELSSLRSEDTAVYYCGRSKRDYFDYWGQGTTLTVSS
VL: DIQMTQSPSSLSASIGDRVTITCKASQDINSYLSWFQQKPGKAPKLLIYRANRLVDGVPSRFSGSGSGTDYTLTISSLQPEDFAVYYCLQYDEFPYTFGGGTKLEIKR
notes: Humanized anti-human CD200 mAb with G2/G4 constant region; also called ALXN6000; TPP-309
binds: all assays above

B2: TPP-1142 (antibody, human IgG2, kappa, V domains shown)
VH: QVQLVQSGAEVKKPGASVKVSCKASGYSFTDYIILWVRQAPGQRLEWMGHIDPYYGSSNYNLKFKGRVTITRDTSASTAYMELSSLRSEDTAVYYCGRSKRDYFDYWGQGTLVTVSS
VL: B1 VL with I15V, L46S, Y71F, V85T, G100Q
notes: mAb with human G2G4 Fc (effectorless)
binds: cell surface CD200 [1] | cell surface CD200 [3]

B3: TPP-1143 (antibody, human IgG2, kappa, V domains shown)
VH: B2 VH
VL: B1 VL with I15V, L46S, Y71F, A84G, V85T, G100Q
notes: mAb with human G2G4 Fc (effectorless); also called TPP-11143 (as printed once)
binds: all assays above
